# Reference: PubChem BioAssay AID1487 (National Center for Advancing Translational Sciences (NCATS), 2009)
# This is one part of the list. The main result of the screen is listed elsewhere. These columns were measured beside it and carry no call. Compounds called inactive in the main read-out are mostly missing here. Words in brackets tell the shape of the fitted curve; partial curves, single points and poor fits give uncertain potencies.
# Assay: qHTS Assay for Modulators of Lamin A Splicing
# Conditions: HeLa LMNA splicing GFP/RFP minigene ratio, 48 h
# Method in brief: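 S3 HeLa cells stably expressing lamin A-EGFP splicing minigene plus DsRed2, 600 cells/well, 48 h compound exposure at 37C. Laser-scanning cytometry; analysed as GFP (500-530 nm)/RFP (575-640 nm) total intensity ratio; 0.5% DMSO vehicle.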
# [1] = measured here: RFP viability control channel
# [2] = measured here: GFP splicing reporter channel
Structure (SMILES),AC50 [1],AC50 [2]
Cn1cc(C(=O)c2ccc(Cl)cc2Cl)cc1C(=O)N/N=C(\N)COc1ccc(F)cc1,"31.6 µM [rising, single point]",–
CCn1c(Cc2ccccc2)nnc1SCC(=O)Nc1ccccc1N1CCOCC1,"22.4 µM [rising, single point]",–
CCN(C(=O)Cn1cc(C(=O)c2ccc(F)cc2)c(=O)c2ccc(C)nc21)c1cccc(C)c1,"0.00282 µM [falling, full curve, poor fit]",–
CCOC(=O)c1cc(OC(=O)c2cccc(Cl)c2)n(-c2ccccc2)n1,"0.891 µM [falling, full curve, poor fit]",–
COc1ccc(/C=C2/C(=O)OCc3cc(OC)c(OC)cc32)cc1,"3.55 µM [rising, single point]","5.62 µM [rising, single point]"
Cc1ccc(S(=O)(=O)N/N=C/c2ccc(OS(=O)(=O)c3ccc(C)c([N+](=O)[O-])c3)cc2)cc1,"15.8 µM [rising, single point]","31.6 µM [rising, single point]"
CCOC(=O)c1ccc(N2C(=O)C3C(/C=C/c4ccccc4)OC4(C(=O)c5ccccc5C4=O)C3C2=O)cc1 (stereo unspecified),"3.98 µM [rising, partial curve, poor fit]",–
Cc1cccc(OCCOc2ccccc2C=C(C#N)C#N)c1,"35.5 µM [falling, single point]","35.5 µM [falling, single point]"
COc1ccc(-c2oc3ncnc(NCCN4CCOCC4)c3c2-c2ccc(OC)cc2)cc1,"17.8 µM [rising, partial curve]",–
CC(=O)Nc1ccccc1OCC(=O)NCCc1ccc(Cl)cc1Cl,"31.6 µM [rising, partial curve, poor fit]",–
COc1ccc(CCN(C)Cc2nc(Cc3ccc(OC)c(OC)c3)no2)cc1OC,–,"22.4 µM [falling, single point]"
CCC(=O)Nc1ccc(Cl)c(NC(=S)NC(=O)COc2ccc(Cl)cc2)c1,"3.98 µM [rising, single point]","3.98 µM [rising, partial curve, poor fit]"
Cc1onc(-c2ccccc2)c1C(=O)Nc1nc(-c2ccc(F)c(F)c2)cs1,–,"6.31 µM [rising, single point]"
COc1cccc(-c2[nH]c3c(c2-c2c(-n4cccc4)n(C)c(=O)[nH]c2=O)c(=O)[nH]c(=O)n3C)c1,–,"0.0126 µM [rising, full curve, poor fit]"
C/C(Cl)=C\Cn1c(NCCc2ccccc2)nc2c1c(=O)n(C)c(=O)n2C,"3.16 µM [rising, full curve]","2.24 µM [rising, full curve, poor fit]"
Cc1ccc(N(CC(=O)Nc2cccc(C)c2)S(=O)(=O)c2cccc3nonc23)cc1,"20 µM [rising, single point]","31.6 µM [rising, single point]"
CN(c1ccccc1)c1ccc(/C=C(\CCC(=O)O)c2nc3ccccc3s2)cc1[N+](=O)[O-],"12.6 µM [rising, partial curve, poor fit]",–
Cc1ccc(C(=O)N2CCc3cc(CNC(=O)c4ccnn4C)ccc32)cc1,–,"35.5 µM [falling, single point]"
CC(C)CC(C)NNC(=O)c1cc2ccccc2[nH]1 (stereo unspecified),"0.447 µM [falling, partial curve, poor fit]",–

Structure (SMILES),AC50 [1],AC50 [2]
CCC[n+]1c(C)sc2c3c(ccc21)CCCC3,"35.5 µM [falling, single point]",–
Cn1c(=O)c2ccccc2n(Cc2ccccc2F)c1=O,"35.5 µM [rising, single point]",–
COc1c(OC(C)=O)ccc(/C=C/c2ccc3cccc(OC)c3n2)c1[N+](=O)[O-],–,"2.82 µM [rising, partial curve, poor fit]"
COc1ccc2nc3ccccc3nc2c1,"10 µM [falling, partial curve, poor fit]",–
O=C(NCc1ccc2c(c1)CCN2C(=O)c1ccccc1)c1ccc(Br)o1,"35.5 µM [falling, single point]","22.4 µM [falling, partial curve, poor fit]"
Cc1nnn(-c2nonc2N)c1C(=O)N/N=C/c1ccccc1O,"5.01 µM [rising, single point]",–
N#Cc1cccc(NC(=O)Cc2ccccc2)c1,"3.16 µM [rising, partial curve, poor fit]","3.55 µM [rising, partial curve, poor fit]"
O=C(O)CCN1C(=O)CC(N2C(=O)/C(=C/c3ccc(Cl)cc3)SC2=S)C1=O (stereo unspecified),"22.4 µM [rising, partial curve, poor fit]",–
COc1ccc(-c2noc(CSc3nnc(Cc4ccccc4)n3-c3ccc(Cl)cc3)n2)cc1,"11.2 µM [rising, single point]",–
COC(=O)c1ccc2c(=O)n(CCCCCC(=O)N3CCN(c4cc(Cl)ccc4C)CC3)c(=O)[nH]c2c1,"3.98 µM [falling, partial curve]","5.01 µM [falling, full curve, poor fit]"
Cn1c(C(=O)NCCN2CCc3ccccc3C2)cc2c(=O)[nH]c3ccccc3c21,"0.282 µM [rising, partial curve]",–
COc1cc(C(=S)N(C)C)ccc1O,–,"0.794 µM [rising, full curve]"
O=c1c2cc(NC(=S)N3CCCC3)ccc2nc2n1CCCCC2,–,"3.16 µM [falling, partial curve, poor fit]"
CC1(C(=O)Nc2cccc(S(=O)(=O)N3CCOCC3)c2)Cc2ccccc2C(=O)O1 (stereo unspecified),–,"0.355 µM [rising, full curve, poor fit]"
CC12CCC(C/C1=N/OC(=O)c1cccc([N+](=O)[O-])c1)C2(C)C (stereo unspecified),"0.00316 µM [falling, full curve, poor fit]","10 µM [falling, partial curve]"
O=C(O)c1cc(-c2ccco2)nc2ccc(Br)cc12,"0.562 µM [falling, full curve, poor fit]",–
O=c1oc2ccccc2c(NCc2cccc(F)c2)c1[N+](=O)[O-],"35.5 µM [rising, single point]",–
O=C(Nc1cccc(C(=O)N2CCN(c3ccccc3F)CC2)c1)c1nsc2ccccc12,–,"10 µM [falling, partial curve, poor fit]"
CC1=CN2C(=N)/C(=C/c3ccc(Sc4ccc(C)cc4)o3)C(=O)N=C2S1,"17.8 µM [rising, single point]",–

# Single records, from the list above:
# CCOC(=O)c1cc(OC(=O)c2cccc(Cl)c2)n(-c2ccccc2)n1 is entered as AC50 [1]: 0.891 µM [falling, full curve, poor fit]
# O=c1c2cc(NC(=S)N3CCCC3)ccc2nc2n1CCCCC2 is entered as AC50 [2]: 3.16 µM [falling, partial curve, poor fit]
# Cc1ccc(S(=O)(=O)N/N=C/c2ccc(OS(=O)(=O)c3ccc(C)c([N+](=O)[O-])c3)cc2)cc1 is entered as AC50 [1]: 15.8 µM [rising, single point]; AC50 [2]: 31.6 µM [rising, single point]

# Later entries:

Structure (SMILES),AC50 [1],AC50 [2]
Fc1ccc(NC(=S)Nc2ccc(Cl)cc2)cc1,–,"0.0316 µM [falling, full curve]"
COc1ccc(C(=O)OCc2cc3cccc(C)c3[nH]c2=O)cc1,"0.112 µM [rising, full curve, poor fit]",–
Cc1ccc(OCCn2c(C3CC(=O)N(Cc4ccccc4)C3)nc3ccccc32)cc1 (stereo unspecified),"12.6 µM [rising, partial curve]",–
Cc1ccccc1C(=O)Nc1ccc2nc(Nc3cccc(C(F)(F)F)c3)cc(C)c2c1,–,"0.1 µM [falling, full curve]"
COc1cccc(CNCCc2c[nH]c3ccccc23)c1OCc1ccccc1,"22.4 µM [rising, partial curve, poor fit]",–
CCOc1cc(N2CCOCC2)c(OCC)cc1NC(=O)Cc1ccc(OC)c(OC)c1,"12.6 µM [rising, partial curve]",–
COc1cc(N)c(Cl)cc1C(=O)NC1CCN(Cc2ccccc2)CC1,"1.12 µM [rising, partial curve, poor fit]","0.282 µM [falling, full curve]"
N[C@H](Cc1cc(I)c(Oc2ccc(O)c(I)c2)c(I)c1)C(=O)O,"12.6 µM [falling, single point]","5.62 µM [falling, single point]"
COc1ccc(Nc2nc(N3CCCC3)nc3ccccc23)c(OC)c1,"20 µM [rising, partial curve, poor fit]",–
c1ccc2c(c1)ncn2CCOCCOCCn1cnc2ccccc21,"35.5 µM [rising, single point]",–
O=C1CC(/C=C/c2cccnc2)=Nc2ccccc2N1,"35.5 µM [rising, single point]",–
COc1ccc(CCNc2ncnc3[nH]ncc23)cc1OC,"35.5 µM [rising, single point]",–
S=P(N1CC1)(N1CC1)N1CC1,"10 µM [rising, partial curve]","0.141 µM [falling, full curve, poor fit]"
CCOc1ccccc1CNC(=O)C1CCN(S(=O)(=O)c2c(C)noc2/C=C/c2ccc(C)cc2)CC1,"10 µM [falling, partial curve]","11.2 µM [falling, partial curve, poor fit]"
COc1ccc(NC(=O)c2ccc3ccccc3n2)cc1S(=O)(=O)N1CCCCC1,"22.4 µM [rising, single point]",–
O=C(Nc1cccc(S(=O)(=O)NC2=NCCCCC2)c1)c1cc(-c2ccncc2)nc2ccccc12,"11.2 µM [rising, single point]",–
COc1ccc(/C=C/C(=O)N2CCN(c3ccccc3)CC2)cc1S(=O)(=O)N1CCOCC1,–,"17.8 µM [falling, partial curve, poor fit]"
CSc1ncccc1C(=O)N1CCCC(C(=O)c2ccc3ccccc3c2)C1 (stereo unspecified),"11.2 µM [falling, partial curve, poor fit]","8.91 µM [falling, partial curve]"
